Source: PMC3003670

By UniProt entry, the sequences of proteins in these tests, tags left out. Where a name states a change or a piece, a line headed by the entry shows the natural chain unless it says otherwise.
UniProt P15976: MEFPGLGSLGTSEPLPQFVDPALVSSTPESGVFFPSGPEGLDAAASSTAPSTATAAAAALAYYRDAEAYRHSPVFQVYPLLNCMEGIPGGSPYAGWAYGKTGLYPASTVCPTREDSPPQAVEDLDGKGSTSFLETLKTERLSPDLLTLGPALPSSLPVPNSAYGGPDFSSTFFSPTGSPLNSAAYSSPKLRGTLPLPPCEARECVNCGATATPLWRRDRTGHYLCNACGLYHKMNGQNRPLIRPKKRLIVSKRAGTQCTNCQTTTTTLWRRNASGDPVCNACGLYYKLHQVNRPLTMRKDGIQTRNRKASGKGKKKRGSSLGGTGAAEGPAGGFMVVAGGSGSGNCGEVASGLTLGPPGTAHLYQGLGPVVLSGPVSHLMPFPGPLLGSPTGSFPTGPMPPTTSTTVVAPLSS

Assays:
GATA-1 [1] = target: GATA-1 (UniProt P15976); experiment: competition with a labelled probe; conditions: K562 nuclear extract, unlabeled mutant at 50-200-fold molar excess failed to compete with labeled wt probe; LightShift chemiluminescent EMSA kit, 4 ug nuclear extract, 50 ug/ml poly(dI-dC), 6% DNA retardation gel; pH and temperature not stated; protein in an extract; label: none (unlabeled competitor)
GATA-1 [2] = target: GATA-1 (UniProt P15976); experiment: EMSA; conditions: K562 nuclear extract 4 ug, complex blocked by anti-GATA-1 antibody and by 50-200-fold unlabeled wt probe; LightShift chemiluminescent EMSA kit, 4 ug nuclear extract, 50 ug/ml poly(dI-dC), 6% DNA retardation gel; pH and temperature not stated; protein in an extract

| Sequence | binding result (GATA-1 [1]) | binding result (GATA-1 [2]) |
| --- | --- | --- |
| GCCAGAGGCCTGCTCACTGG (double strand) [-850 GATA-1 mt (ALCAM promoter)] | no binding |  |
| GCCAGAGGCCTTATCACTGG (double strand) [-850 GATA-1 wt (ALCAM promoter)] |  | binds |

Construct, isoform or probe ends are uncertain for at least one entry. Where cells or extracts were used, other partners may take part. For some assays here: Negatives hold for the conditions tested.
